Assay results as given in paper PMC7819943, “Rice protein-binding microarrays: a tool to detect cis-acting elements near promoter regions in rice”.
Some of the results follow.

What follows are sequences tested against T1, OsSMF1 (Oryza sativa, UniProt Q6ZLB0 1-436) (assay: protein-binding microarray (RPBM); PBS, 2% BSA, 51.3 ng/ul salmon testes DNA, 50 uM zinc acetate, 200 nM TF, 25 C, 1 h; high values mean tight binding). Details: protein: recombinant; tags: N-terminal polyhistidine and DsRed monomer fusion (pET32a); chain copies: 2; label: CyDye5-dUTP incorporated in the synthesized complementary strand; 3' TTTTT single-stranded linker to array surface; dsDNA, one strand shown.
T1 sequence: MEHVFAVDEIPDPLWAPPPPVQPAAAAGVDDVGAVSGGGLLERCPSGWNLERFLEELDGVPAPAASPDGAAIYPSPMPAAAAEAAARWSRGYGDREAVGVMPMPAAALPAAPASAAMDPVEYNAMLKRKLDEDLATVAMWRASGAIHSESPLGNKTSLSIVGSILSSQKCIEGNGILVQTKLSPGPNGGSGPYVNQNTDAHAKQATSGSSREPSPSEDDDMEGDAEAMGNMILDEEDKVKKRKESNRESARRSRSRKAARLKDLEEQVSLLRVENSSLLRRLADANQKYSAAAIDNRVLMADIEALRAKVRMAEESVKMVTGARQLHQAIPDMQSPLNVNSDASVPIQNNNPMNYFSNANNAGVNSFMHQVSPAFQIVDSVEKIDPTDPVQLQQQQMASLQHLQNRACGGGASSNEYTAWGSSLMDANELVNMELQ
How it was run: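 Binding signal is reported as fluorescence intensity per feature (arbitrary units) from an Axon 4000B scanner. Incubation used 200 nM of each Ni–NTA-purified, N-terminally polyhistidine- and DsRed-fused transcription factor from E. coli BL21-CodonPlus on a double-stranded custom Agilent array for 1 h at 25 °C, with 50 µM zinc acetate in the buffer, followed by washing.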

| Sequence | binding signal |
| --- | --- |
| CCTGCCAACCCCATCCCAGCCCTACACGTGTCCATCCTCACGGAGTCACCTAGTGCAG | 11600 fluorescence intensity (a.u.) |
| CACCTGAATAAAGTTCAGTCCATCTCCTCACTTATTTAACCGGAGTCACCTAGTGCAG | 22600 fluorescence intensity (a.u.) |
| GACCATCACCGTGTCGCGGTGTCGGTAATGGTAAGCAGTACGGAGTCACCTAGTGCAG | 5120 fluorescence intensity (a.u.) |
| CACTAGCTTGTTATATTTACGTGGCACACTTTGATGAGTACGGAGTCACCTAGTGCAG | 11500 fluorescence intensity (a.u.) |
| CGCGGTGATTCGGAATACTCGGCGGCGTCTGTATCCGTCTCGGAGTCACCTAGTGCAG | 4800 fluorescence intensity (a.u.) |
| ATAAATACCGCGATAACCTCCTTAAATTCAAATAAATTTACGGAGTCACCTAGTGCAG | 54800 fluorescence intensity (a.u.) |
| GGGCGGCGACGACGGTCACGGCGGACAAGGGCGGCGGCAACGGAGTCACCTAGTGCAG | 3160 fluorescence intensity (a.u.) |
| CGTTGTATGGCCGACGCGGCGAGTCACCAAGACGATAGACCGGAGTCACCTAGTGCAG | 3450 fluorescence intensity (a.u.) |
| TGATCTTGGGCCCAGCTGAGCCCCTGATCACTGCCGGCCACGGAGTCACCTAGTGCAG | 4720 fluorescence intensity (a.u.) |
| CGGGCCGGCACGGCTACTGTAGTGGCACGTGGGCTGGTAGCGGAGTCACCTAGTGCAG | 5100 fluorescence intensity (a.u.) |
| ATATTTATTTATGCAATTTATCGCGCATGTTAACCATTCACGGAGTCACCTAGTGCAG | 3410 fluorescence intensity (a.u.) |
| CGCTGACCAGTCAAACCACCTCCTCCACTTGTCACTTCCACGGAGTCACCTAGTGCAG | 4120 fluorescence intensity (a.u.) |
| TGCCGCCCGACTGATGCACGTCAGTCGGGTCTGACCAGTCCGGAGTCACCTAGTGCAG | 3440 fluorescence intensity (a.u.) |
| GCCGTCCGCCGTGAGCCGGTGCTGTCCACGACGTCGTCTTCGGAGTCACCTAGTGCAG | 3360 fluorescence intensity (a.u.) |
| AGGTTCTTGCGTTTGCTGATGATCAGTGTGCTACTACTGTCGGAGTCACCTAGTGCAG | 3140 fluorescence intensity (a.u.) |
| GACGACGGCGGTGAAAGAGATCCATGTCATCGCCACCGTGCGGAGTCACCTAGTGCAG | 8850 fluorescence intensity (a.u.) |
| AATGAAATTAAACACACCCAACAAAATAAAAGACCAAACCCGGAGTCACCTAGTGCAG | 3140 fluorescence intensity (a.u.) |
| TCCTCCCGCCGCCCCTGGTTGCCGCTCCTCGGCCACGCGGCGGAGTCACCTAGTGCAG | 4400 fluorescence intensity (a.u.) |
| CGCGGTTCGGGCTGACGTCAGGCCGTGTACTGACTCAGGGCGGAGTCACCTAGTGCAG | 8330 fluorescence intensity (a.u.) |
| CCCCTGAGACAGAGGACGATGAGTCACCACCTCACCGCCTCGGAGTCACCTAGTGCAG | 16100 fluorescence intensity (a.u.) |
| CGTGCACACGTGCAAATTAACTTTTGAATTCGAGTCTTTGCGGAGTCACCTAGTGCAG | 4630 fluorescence intensity (a.u.) |

| Sequence | binding signal |
| --- | --- |
| CCACCGGAAACAGGGAAGAAGAGGGGTCGAGAAAGGGGAGCGGAGTCACCTAGTGCAG | 4020 fluorescence intensity (a.u.) |
| TTCCAATAATTCTATTCTCCTTACGTGACGCTATGCTGGTCGGAGTCACCTAGTGCAG | 5480 fluorescence intensity (a.u.) |
| GTTTGTACGTACTACGTAGTACATCGGATCGTACGTACTGCGGAGTCACCTAGTGCAG | 3260 fluorescence intensity (a.u.) |
| CATTTCTCTGTAATGCTTTTCGATTAGGATGCCATTAATTCGGAGTCACCTAGTGCAG | 3350 fluorescence intensity (a.u.) |
| CGGGCATATGGGGCGGTGATGGCGTCGGCACCGCTGTTGTCGGAGTCACCTAGTGCAG | 3930 fluorescence intensity (a.u.) |
| GCGTCGTTCCCGCACTCGTCGCCGCTGCAGCGCGAGGGCCCGGAGTCACCTAGTGCAG | 3790 fluorescence intensity (a.u.) |
| TCTCCCCGCCGCCTCGCCGCCTCGCAAGCGCCACCCCGCCCGGAGTCACCTAGTGCAG | 3290 fluorescence intensity (a.u.) |
| TGCCACATGCATTGGTGGCACTAATTACTATCCATCATGTCGGAGTCACCTAGTGCAG | 3310 fluorescence intensity (a.u.) |
| TGATACTGTCGCAGCTGTGCTACACGCTCATGTACTTCATCGGAGTCACCTAGTGCAG | 3370 fluorescence intensity (a.u.) |
| ACATCATGCCACATGCTTCCAAGAAGGATCCCATAGATGTCGGAGTCACCTAGTGCAG | 4220 fluorescence intensity (a.u.) |
| TTAATTTGGAGGAATTGTTTTCCGATTTTAGATATATATACGGAGTCACCTAGTGCAG | 3680 fluorescence intensity (a.u.) |
| CCCGTGACGTGGCCGCGACAACCGCCGACCCGCCTCTCCCCGGAGTCACCTAGTGCAG | 13900 fluorescence intensity (a.u.) |
| TCCCATCATTCGCTGACCGGCTGGAGACGGCGGTGAAGCGCGGAGTCACCTAGTGCAG | 3830 fluorescence intensity (a.u.) |
| AGAAATGAGAATAATCATGCCACATGTCACCAAACGATTGCGGAGTCACCTAGTGCAG | 3380 fluorescence intensity (a.u.) |
| CAGCTCGGCGCCGACGATGTCGACCCCGTCGTGGCCATTCCGGAGTCACCTAGTGCAG | 3740 fluorescence intensity (a.u.) |
| TCCGGGAGACACGGAGCCACGTTGCCTCGTGTCACCCCGTCGGAGTCACCTAGTGCAG | 7210 fluorescence intensity (a.u.) |
| ATCGCCCCGCCCTCCTCGCCGCGCGGATTCGCTCGCCGCCCGGAGTCACCTAGTGCAG | 3340 fluorescence intensity (a.u.) |
| GCTGGGAGCACCGGCCACATCAATGAATCATACTGTACTACGGAGTCACCTAGTGCAG | 4220 fluorescence intensity (a.u.) |
| TCTGGCGAGTCGGCGGCTCCCCGGCGGCGCGGTGACTCGGCGGAGTCACCTAGTGCAG | 4140 fluorescence intensity (a.u.) |
| GGCCTCGCGTACGGCCGCCACGTGGCCTCGCCGTATCAATCGGAGTCACCTAGTGCAG | 10600 fluorescence intensity (a.u.) |
| CGGGCGGCTGGTCAGGTCAATGTAACTGTACACAGGCGACCGGAGTCACCTAGTGCAG | 3390 fluorescence intensity (a.u.) |

Taken from above for reference:

| Sequence | binding signal |
| --- | --- |
| TTAATTTGGAGGAATTGTTTTCCGATTTTAGATATATATACGGAGTCACCTAGTGCAG | 3680 fluorescence intensity (a.u.) |
| CCCGTGACGTGGCCGCGACAACCGCCGACCCGCCTCTCCCCGGAGTCACCTAGTGCAG | 13900 fluorescence intensity (a.u.) |
| TCCCATCATTCGCTGACCGGCTGGAGACGGCGGTGAAGCGCGGAGTCACCTAGTGCAG | 3830 fluorescence intensity (a.u.) |
| AGAAATGAGAATAATCATGCCACATGTCACCAAACGATTGCGGAGTCACCTAGTGCAG | 3380 fluorescence intensity (a.u.) |
